According to patent US20050222147A1, “Process for the preparation of morpholine derivatives and intermediates therefore” (priority 2000, published 2005):
Some results were stated once for a whole list of compounds, not compound by compound.

target: T1, CCR-3 (Homo sapiens, UniProt P51677); assay: CCR-3 competition binding SPA (scintillation proximity assay); details: inhibition of [125I] eotaxin binding to membranes from K562 cells stably expressing CCR-3
T1 construct: expressed in transfected cells
T1 sequence (P51677 1-355): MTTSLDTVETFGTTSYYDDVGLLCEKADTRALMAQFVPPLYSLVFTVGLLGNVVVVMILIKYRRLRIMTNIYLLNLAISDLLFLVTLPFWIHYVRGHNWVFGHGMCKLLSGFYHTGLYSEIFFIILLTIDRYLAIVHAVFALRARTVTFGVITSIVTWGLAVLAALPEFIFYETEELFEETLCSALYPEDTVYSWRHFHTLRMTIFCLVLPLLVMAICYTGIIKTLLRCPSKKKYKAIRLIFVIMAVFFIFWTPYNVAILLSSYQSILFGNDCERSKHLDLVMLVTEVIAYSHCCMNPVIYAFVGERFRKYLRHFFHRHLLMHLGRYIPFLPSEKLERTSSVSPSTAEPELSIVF

SMILES	pIC50 value in CCR-3 binding assay (assay (a))
Cc1oc(-c2ccccc2)nc1CC(=O)NC[C@H]1CN(Cc2cccc(Cl)c2Cl)CCO1 [Example 178, N-{[(2S)-4-(2,3-dichlorobenzyl)morpholin-2-yl]methyl}-2-(5-methyl-2-phenyl-1,3-oxazol-4-yl)acetamide]	greater than 5.0
Cc1oc(-c2ccc(F)cc2)nc1CC(=O)NC[C@H]1CN(Cc2ccc(Cl)s2)CCO1 [Example 179, N-({(2S)-4-[(5-chlorothien-2-yl)methyl]morpholin-2-yl}methyl)-2-[2-(4-fluorophenyl)-5-methyl-1,3-oxazol-4-yl]acetamide]	greater than 5.0
Cc1oc(-c2ccc(F)cc2)nc1CC(=O)NC[C@H]1CN(Cc2ccc(F)cc2)CCO1 [Example 180, N-{[(2S)-4-(4-fluorobenzyl)morpholin-2-yl]methyl}-2-[2-(4-fluorophenyl)-5-methyl-1,3-oxazol-4-yl]acetamide]	greater than 5.0
Cc1oc(-c2ccc(F)cc2)nc1CC(=O)NC[C@H]1CN(Cc2cccc(Cl)c2Cl)CCO1 [Example 181, N-{[(2S)-4-(2,3-dichlorobenzyl)morpholin-2-yl]methyl}-2-[2-(4-fluorophenyl)-5-methyl-1,3-oxazol-4-yl]acetamide]	greater than 5.0
O=C(Cc1coc(-c2ccccc2)n1)NC[C@H]1CN(Cc2ccc(Cl)s2)CCO1 [Example 182, N-({(2S)-4-[(5-chlorothien-2-yl)methyl]morpholin-2-yl}methyl)-2-(2-phenyl-1,3-oxazol-4-yl)acetamide]	greater than 5.0
O=C(Cc1coc(-c2ccccc2)n1)NC[C@H]1CN(Cc2ccc(F)cc2)CCO1 [Example 183, N-{[(2S)-4-(4-fluorobenzyl)morpholin-2-yl]methyl}-2-(2-phenyl-1,3-oxazol-4-yl)acetamide]	greater than 5.0
O=C(Cc1coc(-c2ccccc2)n1)NC[C@H]1CN(Cc2cccc(Cl)c2Cl)CCO1 [Example 184, N-{[(2S)-4-(2,3-dichlorobenzyl)morpholin-2-yl]methyl}-2-(2-phenyl-1,3-oxazol-4-yl)acetamide]	greater than 5.0
Cc1oc(-c2ccccc2)nc1CC(=O)NC[C@H]1CN(Cc2ccc(F)c(F)c2)CCO1 [Example 185, N-{[(2S)-4-(3,4-difluorobenzyl)morpholin-2-yl]methyl}-2-(5-methyl-2-phenyl-1,3-oxazol-4-yl)acetamide]	greater than 5.0
Cc1oc(-c2ccccc2)nc1CC(=O)NC[C@H]1CN(Cc2cccc(Cl)c2)CCO1 [Example 186, N-{[(2S)-4-(3-chlorobenzyl)morpholin-2-yl]methyl}-2-(5-methyl-2-phenyl-1,3-oxazol-4-yl)acetamide]	greater than 5.0
Cc1oc(-c2ccc(F)cc2)nc1CC(=O)NC[C@H]1CN(Cc2ccc(F)c(F)c2)CCO1 [Example 187, N-{[(2S)-4-(3,4-difluorobenzyl)morpholin-2-yl]methyl}-2-[2-(4-fluorophenyl)-5-methyl-1,3-oxazol-4-yl]acetamide]	greater than 5.0
Cc1oc(-c2ccc(F)cc2)nc1CC(=O)NC[C@H]1CN(Cc2cccc(Cl)c2)CCO1 [Example 188, N-{[(2S)-4-(3-chlorobenzyl)morpholin-2-yl]methyl}-2-[2-(4-fluorophenyl)-5-methyl-1,3-oxazol-4-yl]acetamide]	greater than 5.0
O=C(Cc1coc(-c2ccccc2)n1)NC[C@H]1CN(Cc2ccc(F)c(F)c2)CCO1 [Example 189, N-{[(2S)-4-(3,4-difluorobenzyl)morpholin-2-yl]methyl}-2-(2-phenyl-1,3-oxazol-4-yl)acetamide]	greater than 5.0
O=C(Cc1coc(-c2ccccc2)n1)NC[C@H]1CN(Cc2cccc(Cl)c2)CCO1 [Example 190, N-{[(2S)-4-(3-chlorobenzyl)morpholin-2-yl]methyl}-2-(2-phenyl-1,3-oxazol-4-yl)acetamide]	greater than 5.0
Cc1oc(-c2ccc(F)cc2)nc1CC(=O)NC[C@H]1CN(Cc2ccc(Cl)c(Cl)c2)CCO1 [Example 191, N-{[(2S)-4-(3,4-dichlorobenzyl)morpholin-2-yl]methyl}-2-[2-(4-fluorophenyl)-5-methyl-1,3-oxazol-4-yl]acetamide]	greater than 5.0
O=C(Cc1coc(-c2ccccc2)n1)NC[C@H]1CN(Cc2ccc(Cl)c(Cl)c2)CCO1 [Example 192, N-{[(2S)-4-(3,4-dichlorobenzyl)morpholin-2-yl]methyl}-2-(2-phenyl-1,3-oxazol-4-yl)acetamide]	greater than 5.0
O=C(Cc1cccc(C(=O)NC2CC2)c1)NC[C@H]1CN(Cc2cccc(Cl)c2Cl)CCO1 [Example 193, N-cyclopropyl-3-[2-({[(2S)-4-(2,3-dichlorobenzyl)morpholin-2-yl]methyl}amino)-2-oxoethyl]benzamide]	greater than 5.0
O=C(Cc1cccc(C(=O)NC2CC2)c1)NC[C@H]1CN(Cc2ccc(Cl)s2)CCO1 [Example 194, 3-{2-[({(2S)-4-[(5-chlorothien-2-yl)methyl]morpholin-2-yl}methyl)amino]-2-oxoethyl}-N-cyclopropylbenzamide]	greater than 5.0
O=C(Cc1cccc(C(=O)NC2CC2)c1)NC[C@H]1CN(Cc2ccc(F)cc2)CCO1 [Example 195, N-cyclopropyl-3-[2-({[(2S)-4-(4-fluorobenzyl)morpholin-2-yl]methyl}amino)-2-oxoethyl]benzamide]	greater than 5.0
O=C(Cc1cccc(C(=O)NC2CC2)c1)NC[C@H]1CN(Cc2cccc(Cl)c2)CCO1 [Example 196, 3-[2-({[(2S)-4-(3-chlorobenzyl)morpholin-2-yl]methyl}amino)-2-oxoethyl]-N-cyclopropylbenzamide]	greater than 5.0
O=C(Cc1cccc(C(=O)NC2CC2)c1)NC[C@H]1CN(Cc2ccc(F)c(F)c2)CCO1 [Example 197, N-cyclopropyl-3-[2-({[(2S)-4-(3,4-difluorobenzyl)morpholin-2-yl]methyl}amino)-2-oxoethyl]benzamide]	greater than 5.0
O=C(Cc1cccc(C(=O)NC2CC2)c1)NC[C@H]1CN(Cc2ccc(Cl)c(Cl)c2)CCO1 [Example 198, N-cyclopropyl-3-[2-({[(2S)-4-(3,4-dichlorobenzyl)morpholin-2-yl]methyl}amino)-2-oxoethyl]benzamide]	greater than 5.0
O=C(Cn1nnc(-c2ccccc2)n1)NC[C@H]1CN(Cc2cccc(Cl)c2Cl)CCO1 [Example 199, N-{[(2S)-4-(2,3-dichlorobenzyl)morpholin-2-yl]methyl}-2-(5-phenyl-2H-tetraazol-2-yl)acetamide]	greater than 5.0
O=C(Cn1nnc(-c2ccccc2)n1)NC[C@H]1CN(Cc2ccc(F)cc2)CCO1 [Example 200, N-{[(2S)-4-(4-fluorobenzyl)morpholin-2-yl]methyl}-2-(5-phenyl-2H-tetraazol-2-yl)acetamide]	greater than 5.0
O=C(Cn1nnc(-c2ccccc2)n1)NC[C@H]1CN(Cc2cccc(Cl)c2)CCO1 [Example 201, N-{[(2S)-4-(3-chlorobenzyl)morpholin-2-yl]methyl}-2-(5-phenyl-2H-tetraazol-2-yl)acetamide]	greater than 5.0
O=C(Cn1nnc(-c2ccccc2)n1)NC[C@H]1CN(Cc2ccc(F)c(F)c2)CCO1 [Example 202, N-{[(2S)-4-(3,4-difluorobenzyl)morpholin-2-yl]methyl}-2-(5-phenyl-2H-tetraazol-2-yl)acetamide]	greater than 5.0
Cc1ccsc1-c1nc(CC(=O)NC[C@H]2CN(Cc3ccc(Cl)c(Cl)c3)CCO2)c(C)o1 [Example 203, N-{[(2S)-4-(3,4-dichlorobenzyl)morpholin-2-yl]methyl}-2-[5-methyl-2-(3-methylthien-2-yl)-1,3-oxazol-4-yl]acetamide]	greater than 5.0
Cc1cc(-c2nc(CC(=O)NC[C@H]3CN(Cc4ccc(Cl)c(Cl)c4)CCO3)c(C)o2)n(C)n1 [Example 204, N-{[(2S)-4-(3,4-dichlorobenzyl)morpholin-2-yl]methyl}-2-[2-(1,3-dimethyl-1H-pyrazol-5-yl)-5-methyl-1,3-oxazol-4-yl]acetamide]	greater than 5.0
Cc1oc(-c2sccc2Cl)nc1CC(=O)NC[C@H]1CN(Cc2ccc(Cl)c(Cl)c2)CCO1 [Example 205, 2-[2-(3-chlorothien-2-yl)-5-methyl-1,3-oxazol-4-yl]-N-{[(2S)-4-(3,4-dichlorobenzyl)morpholin-2-yl]methyl}acetamide]	greater than 5.0
O=C(Cn1nnc(-c2ccccc2)n1)NC[C@H]1CN(Cc2ccc(Cl)s2)CCO1 [Example 206, N-({(2S)-4-[(5-chlorothien-2-yl)methyl]morpholin-2-yl}methyl)-2-(5-phenyl-2H-tetraazol-2-yl)acetamide]	greater than 5.0
Cc1oc(-c2ccc(F)cc2)nc1CC(=O)NC[C@H]1CN(Cc2cccc(C#N)c2)CCO1 [Example 207, N-{[(2S)-4-(3-cyanobenzyl)morpholin-2-yl]methyl}-2-[2-(4-fluorophenyl)-5-methyl-1,3-oxazol-4-yl]acetamide]	greater than 5.0
